Here are results for two molecules from PMC6553557.

Amino acid sequences for entries named in this document (tags omitted). Residues count along the entry.
UniProt P9WIN9, residues 25-228: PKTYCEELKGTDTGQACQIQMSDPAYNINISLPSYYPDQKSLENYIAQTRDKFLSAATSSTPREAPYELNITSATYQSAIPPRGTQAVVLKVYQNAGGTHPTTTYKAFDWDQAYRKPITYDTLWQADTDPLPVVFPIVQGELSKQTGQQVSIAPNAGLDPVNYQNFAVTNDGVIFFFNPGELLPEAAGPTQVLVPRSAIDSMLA

Results are given in words; binding and its absence hold for the method and conditions named.

The assay deals with six-histidine (6xHIS)-tagged Mpt64 (Rv1980c) (Mycobacterium tuberculosis) (UniProt P9WIN9). The experiment in a line: pull-down; both purified.

For “hen egg white lysozyme (from UniProt P00698 19-147) (enzyme)”, the binding entry is “no binding (tested: 1 mg/ml)”.

B1: human lysozyme (enzyme, UniProt P61626 19-148)
chain: KVFERCELARTLKRLGMDGYRGISLANWMCLAKWESGYNTRATNYNAGDRSTDYGIFQINSRYWCNDGKTPGAVNACHLSCSALLQDNIADAVACAKRVVRDPQGIRAWVAWRNRCQNRDVRQYVQGCGV
B1: the binding entry was “no binding (tested: 1 mg/ml)”.
